From patent US20240139333A1, “2,6-DICHLOROPHENYL ESTER COMPOUNDS AND USE THEREOF” (Fusion Pharmaceuticals Inc., priority 2021, published 2024)

How the values were obtained:
[1] = Comparative active ester reactivity study with HOA nucleophile (N-hydroxy-N-methylbenzamide); conditions: N-Hydroxy-N-methylbenzamide 1 eq., 22±2° C.
Procedure: (§1) General Experimental Protocol for Comparative Active Ester Reactivity Study with HOPO or HOA Nucleophiles
(§2) To a 4 mL scintillation vial containing Compound A-E (in respective experiments; 1 eq.) was added a stir bar followed by 150 μL of HPLC grade acetonitrile. In another 4 mL scintillation vial containing a respective nucleophile (1 eq.) was added 280 μL HPLC grade water. The solutions were combined and allowed to stir at room temperature (22±2° C.) for 4 hours. Timed aliquots at time (T)=15, 30, 60, 120 and 240 minutes were taken and analyzed by HPLC-MS using elution method 1 (Table 1).

[2] = Comparative active ester reactivity study with HOPO nucleophile; conditions: 1,2-HOPO 1 eq., 22±2° C.
Procedure: as §1, §2

[3] = Comparative active ester reactivity study with HOA nucleophile (benzhydroxamic acid); conditions: Benzhydroxamic Acid 1 eq., 22±2° C.
Procedure: as §1, §2

[4] = Nucleophilic reactivity study with L-Lysine; conditions: L-Lysine 5 equiv, 22±2° C.
Procedure: General Experimental Protocol for Nucleophilic Reactivity Study with L-Lysine
To a 4 mL scintillation vial containing Compound A-E (in respective experiments; 1 eq.) was added a stir bar followed by 70 μL of HPLC grade acetonitrile. In another 4 mL scintillation vial containing L-Lysine monohydrochloride (5 eq.) was added 130 μL HPLC grade water followed by diisopropylethylamine (5 eq.). The solutions were combined and allowed to stir at room temperature (22±2° C.). Timed aliquots at time (T)=15, 30, 60 and 120 minutes were taken and analyzed by HPLC-MS using elution method 1 (Table 2).

[5] = Active ester reactivity study with amino acids (Z-Ser-OH); conditions: Z-Ser-OH 1 eq., 22±2° C.
Procedure: (§3) General Experimental Protocol for Nucleophilic Reactivity Study with Amino Acids
as §2, with “A or C (1” for “A-E (in respective experiments; 1”, “70” for “150”, “amino acid (1-5” for “nucleophile (1”, “130” for “280”, “water followed by diisopropylethylamine (5 eq.).” for “water.”, “6).” for “1).”

[6] = Active ester reactivity study with amino acids (N-Acetyl-L-Cysteine); conditions: N-Acetyl-L-Cysteine 5 eq., 22±2° C.
Procedure: as §3
as §2, with “A or C (1” for “A-E (in respective experiments; 1”, “70” for “150”, “amino acid (1-5” for “nucleophile (1”, “130” for “280”, “water followed by diisopropylethylamine (5 eq.).” for “water.”, “6).” for “1).”

[7] = Active ester reactivity study with amino acids (Z-Arg-OH); conditions: Z-Arg-OH 1 eq., 22±2° C.
Procedure: as §3
as §2, with “A or C (1” for “A-E (in respective experiments; 1”, “70” for “150”, “amino acid (1-5” for “nucleophile (1”, “130” for “280”, “water followed by diisopropylethylamine (5 eq.).” for “water.”, “6).” for “1).”

| Compound | % Nucleophilic Substitution Product ([1]; 15 min) | % Nucleophilic Substitution Product ([1]; 30 min) | % Nucleophilic Substitution Product ([1]; 60 min) | % Nucleophilic Substitution Product ([1]; 120 min) | % Nucleophilic Substitution Product ([1]; 240 min) | % Nucleophilic Substitution Product ([2]; 15 min) | % Nucleophilic Substitution Product ([2]; 30 min) | % Nucleophilic Substitution Product ([2]; 60 min) | % Nucleophilic Substitution Product ([2]; 120 min) | % Nucleophilic Substitution Product ([2]; 240 min) | % Nucleophilic Substitution Product ([3]; 15 min) | % Nucleophilic Substitution Product ([3]; 30 min) | % Nucleophilic Substitution Product ([3]; 60 min) | % Nucleophilic Substitution Product ([3]; 120 min) | % Nucleophilic Substitution Product ([3]; 240 min) | % Total Lysine Substitution ([4]; 15 min) [%] | % Total Lysine Substitution ([4]; 30 min) [%] | further results |
| --- | --- | --- | --- | --- | --- | --- | --- | --- | --- | --- | --- | --- | --- | --- | --- | --- | --- | --- |
| O=C(CCc1cccnc1)ON1C(=O)CCC1=O [Compound E, 2,5-Dioxo-1-pyrrolidinyl 3-pyridinepropanoate] | (67.92) % | (79.23) % | (88.41) % | (92.23) % | (95.37) % | (9.37) % | (9.21) % | (9.27) % | (5.79) % | (2.95) % | (92.96) % | (94.85) % | (95.25) % | (95.31) % | (95.08) % | 100 | – | – |
| O=C(CCc1cccnc1)Oc1c(F)c(F)cc(F)c1F [Compound C, 2,3,5,6-Tetrafluorophenyl-3-(pyridin-3-yl)propanoate] | (18.44) % | (27.06) % | (37.69) % | (49.10) % | (61.03) % | (10.07) % | (12.74) % | (11.09) % | (4.07) % | (1.70) % | (40.72) % | (53.89) % | (67.00) % | (80.24) % | (89.53) % | 100 | – | % Nucleophilic Substitution Product ([5]; 15 min): (5.90) %; % Nucleophilic Substitution Product ([5]; 30 min): (9.02) %; % Nucleophilic Substitution Product ([5]; 60 min): (12.30) %; % Nucleophilic Substitution Product ([5]; 120 min): (14.11) %; % Nucleophilic Substitution Product ([5]; 240 min): (14.81) %; % Nucleophilic Substitution Product ([6]; 15 min): (4.88) %; % Nucleophilic Substitution Product ([6]; 30 min): (8.05) %; % Nucleophilic Substitution Product ([6]; 60 min): (14.75) %; % Nucleophilic Substitution Product ([6]; 120 min): (43.38) %; % Nucleophilic Substitution Product ([6]; 240 min): (100) %; % Nucleophilic Substitution Product ([7]; 15 min): (19.78) %; % Nucleophilic Substitution Product ([7]; 30 min): (22.24) %; % Nucleophilic Substitution Product ([7]; 60 min): (24.43) %; % Nucleophilic Substitution Product ([7]; 120 min): (24.57) % |
| O=C(CCc1cccnc1)Oc1c(F)cccc1F [Compound B, 2,6-Difluorophenyl-3-(pyridin-3-yl)propanoate] | (8.58) % | (14.88) % | (25.92) % | (43.06) % | (63.71) % | (0.33) % | (0.54) % | (0.98) % | (2.05) % | (1.67) % | (18.10) % | (30.25) % | (43.26) % | (56.93) % | (70.96) % | 99.80 | 100 | – |
| O=C(CCc1cccnc1)Oc1ccc([N+](=O)[O-])cc1 [Compound D, 4-Nitrophenyl-3-(pyridin-3-yl)propanoate] | (4.22) % | (8.89) % | (16.40) % | (34.28) % | (57.91) % | (0.19) % | (0.41) % | (0.78) % | (1.07) % | (0.68) % | (3.51) % | (15.72) % | (25.42) % | (42.66) % | (65.36) % | 91.66 | 100 | – |
